Patent US20220306758A1
These are yes or no findings as the source states them, for the method shown. Some results given as binding are weak or reduced against the parent protein; the word gives no strength.

B1: mAb16711 (antibody, V domains shown)
VH: QVQLVESGGGVVQPGRSLRLSCAASGFTFSTYGIHWVRQAPGKGLEWVAVILHDGSSNYYAESVKGRFIISRDNSKNTLYLQMNSLRAEDTALYYCTKRYSEAAGPNWFDPWGQGTLVTVSS
VL: DIQMTQSPSSVSASVGDRVTITCRASRGISSWLAWYQQKPGKAPKLLIHAASSLQSGVPSRFSGSGSGTDFTLTISSLQPEDFATYYCQQAISFPFTFGPGTKVDIK
B2: mAb16732 (REGN4514) (antibody, V domains shown)
VH: EVQLVESGGGLVQPGRSLRLSCAASGFTFDDYAMHWVRQAPGKGLEWVSGISWNSGNMGYADSVKGRFTISRDNAKNSLFLQMHSLRAEDTAFYYCAKVRLTAFDFWGQGTLVTVSS
VL: DIQMTQSPSSLSASVGDRVTITCRTSQSIGNYLNWFQQKPGKAPKLLIYTASSLQNGVPSRFTGSGSGTDFTLTISSLQPEDFVIYYCQQSFSTPYTFGQGTKLEIK
B3: mAb16747 (REGN4515) (antibody, V domains shown)
VH: QVQLVESGGGLVKPGGSLRLSCAASGFTFSDYYISWIRQAPGKGLEWVSYISSSGSSIKYADSVKGRFTISRDNAKNSLYLQMNSLRAEDTAVYYCAREGGNYGMDVWGQGTTVTVSS
VL: DIQMTQSPSSVSASVGDRVTITCRASQGINNWLVWYQQKPGKAPKLLIYAATSLQSGVPSRFSGSGSGTDFTLTISSLQPEDFATYYCQQANSFPPTFGQGTKLEIK

biological target: mouse BCMA-MFC (BCMA with C-terminal mFc tag) (mouse); test: SPR, 25 C

| Binder | binding |
| --- | --- |
| B1 | binds |
| B2 | binds |
| B3 | binds |
